Test [1] addresses T1, Cdc20^Slp1 with an internal 3×FLAG tag (fission yeast (S. pombe)) (UniProt P78972).
T1 sequence: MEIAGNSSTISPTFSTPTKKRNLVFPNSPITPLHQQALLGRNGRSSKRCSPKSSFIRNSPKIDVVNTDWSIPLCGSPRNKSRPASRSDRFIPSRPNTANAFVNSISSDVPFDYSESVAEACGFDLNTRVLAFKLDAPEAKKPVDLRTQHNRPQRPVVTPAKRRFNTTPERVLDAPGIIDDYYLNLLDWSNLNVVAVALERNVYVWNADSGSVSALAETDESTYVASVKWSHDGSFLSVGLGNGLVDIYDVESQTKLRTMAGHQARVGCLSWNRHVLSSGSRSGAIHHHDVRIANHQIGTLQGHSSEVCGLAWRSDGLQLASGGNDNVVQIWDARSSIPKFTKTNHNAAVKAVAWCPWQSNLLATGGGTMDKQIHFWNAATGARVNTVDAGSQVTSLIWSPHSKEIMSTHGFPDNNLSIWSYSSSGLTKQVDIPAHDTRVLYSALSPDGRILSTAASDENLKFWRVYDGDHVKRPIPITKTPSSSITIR
The experiment in a line: co-IP; Cdc20-FLAG immunoprecipitated from the supernatant of mitotic lysates (cdc25-22 cdc20-HA cdc20-FLAG cut9-GFP, 60 min after release) after four rounds of Cut9-GFP immunodepletion of the APC/C; wild type and apc15Δ.

The target of test [2] is T1, Cdc20^Slp1 with an internal 3×FLAG tag (fission yeast (S. pombe)). The experiment in a line: co-IP; Cdc20-FLAG immunoprecipitated from lysates of cdc25-22 cdc20-FLAG cells synchronised by cdc25 block and release, samples at 15-min intervals; wild type, apc14Δ and apc15Δ; blotted for Mad3 and Mad2.
In test [3] the target is T2, Apc1-GFP (fission yeast (S. pombe)) (UniProt Q9URV2).
T2 sequence: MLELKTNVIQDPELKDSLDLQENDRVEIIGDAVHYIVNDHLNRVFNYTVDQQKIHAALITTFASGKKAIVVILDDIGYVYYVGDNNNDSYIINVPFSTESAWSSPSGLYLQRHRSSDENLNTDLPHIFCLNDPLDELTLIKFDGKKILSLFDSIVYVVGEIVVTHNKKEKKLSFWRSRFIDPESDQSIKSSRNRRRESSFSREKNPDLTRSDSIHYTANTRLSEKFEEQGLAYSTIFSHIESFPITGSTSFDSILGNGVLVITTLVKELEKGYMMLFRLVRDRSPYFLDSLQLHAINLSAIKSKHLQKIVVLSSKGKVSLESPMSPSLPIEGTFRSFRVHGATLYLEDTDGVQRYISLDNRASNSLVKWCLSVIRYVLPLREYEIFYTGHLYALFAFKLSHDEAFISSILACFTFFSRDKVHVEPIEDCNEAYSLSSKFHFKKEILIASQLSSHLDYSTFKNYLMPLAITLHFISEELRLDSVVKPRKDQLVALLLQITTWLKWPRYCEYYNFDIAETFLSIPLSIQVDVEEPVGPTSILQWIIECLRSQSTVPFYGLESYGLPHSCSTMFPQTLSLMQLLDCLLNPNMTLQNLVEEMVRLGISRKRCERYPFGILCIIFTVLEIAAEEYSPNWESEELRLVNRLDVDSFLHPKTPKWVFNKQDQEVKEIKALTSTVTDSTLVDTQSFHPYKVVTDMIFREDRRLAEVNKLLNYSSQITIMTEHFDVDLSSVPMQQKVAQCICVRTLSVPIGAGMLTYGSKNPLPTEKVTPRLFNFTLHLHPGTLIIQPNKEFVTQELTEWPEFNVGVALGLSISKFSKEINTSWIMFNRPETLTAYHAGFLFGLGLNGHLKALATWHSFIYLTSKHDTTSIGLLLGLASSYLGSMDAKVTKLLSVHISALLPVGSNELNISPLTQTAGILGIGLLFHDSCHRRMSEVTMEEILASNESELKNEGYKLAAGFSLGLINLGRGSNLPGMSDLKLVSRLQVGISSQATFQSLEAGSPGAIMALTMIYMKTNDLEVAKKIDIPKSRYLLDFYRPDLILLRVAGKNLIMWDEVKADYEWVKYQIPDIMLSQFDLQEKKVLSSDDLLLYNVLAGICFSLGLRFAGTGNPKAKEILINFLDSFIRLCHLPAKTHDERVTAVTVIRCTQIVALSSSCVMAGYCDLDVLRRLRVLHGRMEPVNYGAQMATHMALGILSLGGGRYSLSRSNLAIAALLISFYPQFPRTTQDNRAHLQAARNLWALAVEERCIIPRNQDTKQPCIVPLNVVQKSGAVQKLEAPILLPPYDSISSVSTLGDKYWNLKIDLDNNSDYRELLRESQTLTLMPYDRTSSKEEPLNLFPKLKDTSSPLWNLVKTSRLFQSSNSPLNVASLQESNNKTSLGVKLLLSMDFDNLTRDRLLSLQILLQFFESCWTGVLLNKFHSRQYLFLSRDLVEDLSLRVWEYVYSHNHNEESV
The test can be described thus: co-IP; Apc1-GFP immunoprecipitated (four rounds of immunodepletion) from lysates of cells arrested in metaphase by nda3; beads blotted for Apc15, Cdc20 and checkpoint proteins.

Test [4] has as its target T3, Mad3-GFP (fission yeast (S. pombe)) (UniProt O59767).
T3 sequence: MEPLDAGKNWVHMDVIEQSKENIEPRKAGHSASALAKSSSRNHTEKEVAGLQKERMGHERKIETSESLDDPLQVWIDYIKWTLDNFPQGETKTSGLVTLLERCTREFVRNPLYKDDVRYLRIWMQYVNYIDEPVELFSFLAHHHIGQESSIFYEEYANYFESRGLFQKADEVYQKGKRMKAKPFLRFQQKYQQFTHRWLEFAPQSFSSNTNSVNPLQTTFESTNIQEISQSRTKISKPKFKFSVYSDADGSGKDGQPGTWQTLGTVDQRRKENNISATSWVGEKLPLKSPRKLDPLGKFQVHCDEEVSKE
The experiment in a line: co-IP; strains expressing normal Mad3 and Mad3-GFP, mitotically arrested cells (Figure S3B).

No constants are given. Whether binding was seen depends on the method and setting. In cells and extracts the contact can be indirect. Some results given as binding are weak or reduced against the parent protein; the word gives no strength. Where a sequence is shown, tags or fusion partners need not be part of it.

B1: Mad2 (protein, UniProt O14417 1-203)
chain: MSSVPIRTNFSLKGSSKLVSEFFEYAVNSILFQRGIYPAEDFKVVRKYGLNMLVSVDEEVKTYIRKIVSQLHKWMFAKKIQKLILVITSKCSGEDLERWQFNVEMVDTADQFQNIGNKEDELRVQKEIQALIRQITATVTFLPQLEEQCTFNVLVYADKDSEVPTDWVDSDPRILRDAEQVQLRSFSTSMHKIDCQVAYRVNP
Consider B1, for which the binding result in test [1] and in test [2] was “binds” throughout.

B2: Apc15 (protein, UniProt O94688 1-136)
chain: MSFMSLMANTAHQLWYPTSFPSMKELEKEEVRLETQELAIKQFGFRTIRPIGLNRSMQEQLDLEEQEREEANQDTELDEEELGSGSFPEEGEMDDMDGDNEEVEDHDIEEVDLDADITNADASEFYEDISEYGFQN
With B2, the binding entry in test [3] is recorded as “binds”.

B3: Mad3 (protein, UniProt O59767 1-310)
chain: MEPLDAGKNWVHMDVIEQSKENIEPRKAGHSASALAKSSSRNHTEKEVAGLQKERMGHERKIETSESLDDPLQVWIDYIKWTLDNFPQGETKTSGLVTLLERCTREFVRNPLYKDDVRYLRIWMQYVNYIDEPVELFSFLAHHHIGQESSIFYEEYANYFESRGLFQKADEVYQKGKRMKAKPFLRFQQKYQQFTHRWLEFAPQSFSSNTNSVNPLQTTFESTNIQEISQSRTKISKPKFKFSVYSDADGSGKDGQPGTWQTLGTVDQRRKENNISATSWVGEKLPLKSPRKLDPLGKFQVHCDEEVSKE
As to B3, the binding result was “binds” in test [1], “no binding” in test [4] and “binds” in test [2].

The values are drawn from article PMC5405113.
